No constants are given. Whether binding was seen depends on the method and setting. Binding seen in cells or lysates may run through a third protein. A result given as binding can be weak or reduced; the word gives no strength. Where a sequence is shown, tags or fusion partners need not be part of it.

The target in this experiment is NV-GCN4 (C. albicans Gcn4 tagged at its N-terminus with the N-terminal part of yEmVenus) (Candida albicans). The experiment is described as follows: split reporter; reconstitution of yEmVenus in living C. albicans cells; fusion proteins under the MET3 promoter, induced 3-4 h at 30°C in medium without methionine and cysteine; epifluorescence microscopy.

B1: CV-MBF1 (C. albicans Mbf1 tagged at its N-terminus with the C-terminal part of yEmVenus) (protein, UniProt Q5A940 1-151)
chain: MSSDWDSVTIIGQKARVGGGGPRENVAKTSSQLNAARRAGLVVGTEKKYGTANTKSNPEGQRLTKLDATDDVVAVKKVDVSVGKAIQQARQEKKLTQKELATKVNEKPNVINDYEAGRAIPNQQLLAKLERALGVKLRGKNIGEPLFAKKK
Turning to B1, the binding result is “binds”.

The record behind these values is article PMC10512259.
